Source: article doi:10.1101/2021.03.31.437874
No constants are given. Whether binding was seen depends on the method and setting. Binding seen in cells or lysates may run through a third protein. Some results given as binding are weak or reduced against the parent protein; the word gives no strength. Tags and fused reporters may be left off the sequences shown.

By UniProt entry, the sequences of proteins in these tests, tags left out.
UniProt P39687: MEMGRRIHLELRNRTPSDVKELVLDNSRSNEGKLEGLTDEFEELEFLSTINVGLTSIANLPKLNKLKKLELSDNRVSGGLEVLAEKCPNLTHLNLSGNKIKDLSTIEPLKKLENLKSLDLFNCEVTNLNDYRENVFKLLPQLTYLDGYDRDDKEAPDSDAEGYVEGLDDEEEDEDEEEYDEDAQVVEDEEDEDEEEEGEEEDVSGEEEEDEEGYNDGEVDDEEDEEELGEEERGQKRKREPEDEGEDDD
UniProt Q5U249: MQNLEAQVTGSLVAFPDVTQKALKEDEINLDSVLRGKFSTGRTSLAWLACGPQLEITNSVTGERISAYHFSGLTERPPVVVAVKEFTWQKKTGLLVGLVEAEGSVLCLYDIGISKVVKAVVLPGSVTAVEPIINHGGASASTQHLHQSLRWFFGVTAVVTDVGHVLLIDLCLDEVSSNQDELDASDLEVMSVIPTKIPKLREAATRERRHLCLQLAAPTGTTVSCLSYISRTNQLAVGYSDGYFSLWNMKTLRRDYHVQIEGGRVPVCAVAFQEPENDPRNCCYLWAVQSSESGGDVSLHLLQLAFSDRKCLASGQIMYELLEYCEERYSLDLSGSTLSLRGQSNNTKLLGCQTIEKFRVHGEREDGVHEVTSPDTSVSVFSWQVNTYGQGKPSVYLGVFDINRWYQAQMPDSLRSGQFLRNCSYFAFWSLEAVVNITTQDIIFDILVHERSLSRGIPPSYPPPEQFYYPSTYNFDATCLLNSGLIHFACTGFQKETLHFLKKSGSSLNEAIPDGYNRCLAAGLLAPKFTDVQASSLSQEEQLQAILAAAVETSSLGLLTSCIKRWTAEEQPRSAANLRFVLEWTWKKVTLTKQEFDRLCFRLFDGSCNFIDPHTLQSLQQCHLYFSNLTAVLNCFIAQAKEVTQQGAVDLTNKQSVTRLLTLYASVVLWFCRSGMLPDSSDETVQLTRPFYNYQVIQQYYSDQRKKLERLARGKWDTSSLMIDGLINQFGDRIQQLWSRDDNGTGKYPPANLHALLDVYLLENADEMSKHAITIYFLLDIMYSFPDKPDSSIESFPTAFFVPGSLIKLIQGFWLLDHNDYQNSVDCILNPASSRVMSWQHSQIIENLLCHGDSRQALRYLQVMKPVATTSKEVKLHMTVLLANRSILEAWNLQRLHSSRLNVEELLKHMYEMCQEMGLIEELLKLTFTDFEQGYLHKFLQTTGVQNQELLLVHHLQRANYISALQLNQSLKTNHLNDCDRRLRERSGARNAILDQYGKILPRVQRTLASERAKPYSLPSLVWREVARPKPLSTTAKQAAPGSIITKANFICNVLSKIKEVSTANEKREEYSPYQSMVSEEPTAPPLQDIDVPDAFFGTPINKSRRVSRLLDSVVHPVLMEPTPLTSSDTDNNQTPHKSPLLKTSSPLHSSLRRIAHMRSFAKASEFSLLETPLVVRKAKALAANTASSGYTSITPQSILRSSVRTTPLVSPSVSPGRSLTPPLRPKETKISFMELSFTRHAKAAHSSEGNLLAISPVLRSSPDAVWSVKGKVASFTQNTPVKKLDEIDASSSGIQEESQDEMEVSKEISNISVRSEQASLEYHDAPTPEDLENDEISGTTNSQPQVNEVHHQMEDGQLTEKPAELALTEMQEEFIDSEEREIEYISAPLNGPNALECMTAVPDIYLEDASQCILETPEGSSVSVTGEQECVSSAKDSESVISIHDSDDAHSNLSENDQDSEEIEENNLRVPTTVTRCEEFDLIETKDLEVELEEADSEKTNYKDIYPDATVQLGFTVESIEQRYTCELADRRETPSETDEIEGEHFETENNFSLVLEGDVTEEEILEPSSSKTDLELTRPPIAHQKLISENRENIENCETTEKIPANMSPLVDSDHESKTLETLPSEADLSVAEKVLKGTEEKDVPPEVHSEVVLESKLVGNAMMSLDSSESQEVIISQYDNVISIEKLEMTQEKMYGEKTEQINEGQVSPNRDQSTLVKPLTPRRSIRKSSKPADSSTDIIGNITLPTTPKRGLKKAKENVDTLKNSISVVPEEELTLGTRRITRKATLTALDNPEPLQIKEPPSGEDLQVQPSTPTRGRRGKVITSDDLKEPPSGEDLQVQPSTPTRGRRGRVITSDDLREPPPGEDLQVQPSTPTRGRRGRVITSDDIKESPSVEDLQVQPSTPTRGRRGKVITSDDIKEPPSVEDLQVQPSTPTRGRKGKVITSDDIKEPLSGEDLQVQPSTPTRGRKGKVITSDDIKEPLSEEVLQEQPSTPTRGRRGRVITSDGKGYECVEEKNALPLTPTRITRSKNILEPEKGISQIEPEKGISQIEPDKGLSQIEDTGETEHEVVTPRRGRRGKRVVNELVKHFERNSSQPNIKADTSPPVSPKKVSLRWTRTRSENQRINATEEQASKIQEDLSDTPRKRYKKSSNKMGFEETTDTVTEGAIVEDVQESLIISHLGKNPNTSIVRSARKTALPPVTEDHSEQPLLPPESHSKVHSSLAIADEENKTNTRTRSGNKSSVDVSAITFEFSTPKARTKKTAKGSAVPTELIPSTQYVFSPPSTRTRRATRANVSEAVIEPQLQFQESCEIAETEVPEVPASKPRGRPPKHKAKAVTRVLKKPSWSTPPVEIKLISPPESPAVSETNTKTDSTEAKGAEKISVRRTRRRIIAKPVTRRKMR
UniProt P18754: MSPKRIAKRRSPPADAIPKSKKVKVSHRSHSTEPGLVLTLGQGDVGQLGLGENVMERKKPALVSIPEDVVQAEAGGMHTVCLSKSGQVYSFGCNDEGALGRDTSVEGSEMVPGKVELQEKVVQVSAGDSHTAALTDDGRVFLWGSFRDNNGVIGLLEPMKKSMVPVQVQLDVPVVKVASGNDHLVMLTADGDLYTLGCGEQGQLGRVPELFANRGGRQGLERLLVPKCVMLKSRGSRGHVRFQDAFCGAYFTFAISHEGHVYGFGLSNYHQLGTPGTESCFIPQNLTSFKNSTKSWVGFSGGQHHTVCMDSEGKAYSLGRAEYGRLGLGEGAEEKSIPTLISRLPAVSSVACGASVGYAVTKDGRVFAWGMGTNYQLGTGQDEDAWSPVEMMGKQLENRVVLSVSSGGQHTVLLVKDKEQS
UniProt Q640Z6: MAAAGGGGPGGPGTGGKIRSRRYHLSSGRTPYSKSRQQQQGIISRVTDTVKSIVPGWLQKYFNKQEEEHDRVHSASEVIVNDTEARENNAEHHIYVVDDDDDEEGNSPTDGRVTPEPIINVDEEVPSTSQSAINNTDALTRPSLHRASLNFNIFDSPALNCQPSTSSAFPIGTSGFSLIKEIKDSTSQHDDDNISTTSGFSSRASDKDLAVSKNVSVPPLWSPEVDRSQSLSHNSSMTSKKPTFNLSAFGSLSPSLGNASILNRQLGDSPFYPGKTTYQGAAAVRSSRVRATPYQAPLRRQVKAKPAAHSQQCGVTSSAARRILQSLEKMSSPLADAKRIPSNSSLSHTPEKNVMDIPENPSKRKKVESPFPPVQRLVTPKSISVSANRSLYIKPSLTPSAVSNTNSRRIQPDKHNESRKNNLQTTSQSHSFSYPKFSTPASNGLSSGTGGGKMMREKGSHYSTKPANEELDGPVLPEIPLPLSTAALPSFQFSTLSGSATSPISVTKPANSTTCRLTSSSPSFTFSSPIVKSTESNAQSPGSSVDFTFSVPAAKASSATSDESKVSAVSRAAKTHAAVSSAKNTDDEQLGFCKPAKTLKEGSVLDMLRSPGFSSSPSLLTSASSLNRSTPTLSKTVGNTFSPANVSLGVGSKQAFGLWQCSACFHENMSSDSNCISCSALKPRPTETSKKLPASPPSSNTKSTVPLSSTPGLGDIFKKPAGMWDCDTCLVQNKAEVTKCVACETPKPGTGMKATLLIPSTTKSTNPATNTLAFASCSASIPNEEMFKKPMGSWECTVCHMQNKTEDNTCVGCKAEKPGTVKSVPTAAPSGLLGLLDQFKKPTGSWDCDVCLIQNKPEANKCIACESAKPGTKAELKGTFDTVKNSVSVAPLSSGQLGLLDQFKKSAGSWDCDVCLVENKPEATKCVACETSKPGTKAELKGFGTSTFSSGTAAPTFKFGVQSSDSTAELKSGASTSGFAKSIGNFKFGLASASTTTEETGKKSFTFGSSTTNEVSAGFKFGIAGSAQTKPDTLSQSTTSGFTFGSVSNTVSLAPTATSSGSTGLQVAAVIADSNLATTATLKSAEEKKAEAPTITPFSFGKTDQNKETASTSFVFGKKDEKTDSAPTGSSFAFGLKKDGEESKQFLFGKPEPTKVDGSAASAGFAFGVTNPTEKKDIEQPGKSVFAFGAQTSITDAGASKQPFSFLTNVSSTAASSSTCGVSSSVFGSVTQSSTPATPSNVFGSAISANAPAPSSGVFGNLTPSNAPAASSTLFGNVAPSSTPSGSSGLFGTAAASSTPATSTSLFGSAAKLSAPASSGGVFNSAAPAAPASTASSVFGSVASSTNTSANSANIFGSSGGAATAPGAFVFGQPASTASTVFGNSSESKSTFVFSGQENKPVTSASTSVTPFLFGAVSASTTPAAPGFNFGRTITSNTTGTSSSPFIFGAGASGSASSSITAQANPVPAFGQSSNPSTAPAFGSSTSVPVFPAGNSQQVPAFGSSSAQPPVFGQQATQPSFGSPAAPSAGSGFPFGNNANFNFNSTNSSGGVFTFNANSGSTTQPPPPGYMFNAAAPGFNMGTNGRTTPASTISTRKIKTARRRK

Key:
[1] = biological target: T1, FLAG-Nup50 N-terminal fragment (aa 1-120 of the human sequence) (human) (UniProt Q9UKX7); assay: co-IP
T1 sequence: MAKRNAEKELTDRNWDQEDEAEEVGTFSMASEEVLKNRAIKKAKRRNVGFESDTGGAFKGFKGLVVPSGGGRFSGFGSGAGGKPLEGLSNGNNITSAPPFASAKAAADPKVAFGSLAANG

[2] = biological target: T2, mouse Nup50A C-terminally tagged with EGFP (mouse) (UniProt Q9JIH2); assay: co-IP
T2 sequence: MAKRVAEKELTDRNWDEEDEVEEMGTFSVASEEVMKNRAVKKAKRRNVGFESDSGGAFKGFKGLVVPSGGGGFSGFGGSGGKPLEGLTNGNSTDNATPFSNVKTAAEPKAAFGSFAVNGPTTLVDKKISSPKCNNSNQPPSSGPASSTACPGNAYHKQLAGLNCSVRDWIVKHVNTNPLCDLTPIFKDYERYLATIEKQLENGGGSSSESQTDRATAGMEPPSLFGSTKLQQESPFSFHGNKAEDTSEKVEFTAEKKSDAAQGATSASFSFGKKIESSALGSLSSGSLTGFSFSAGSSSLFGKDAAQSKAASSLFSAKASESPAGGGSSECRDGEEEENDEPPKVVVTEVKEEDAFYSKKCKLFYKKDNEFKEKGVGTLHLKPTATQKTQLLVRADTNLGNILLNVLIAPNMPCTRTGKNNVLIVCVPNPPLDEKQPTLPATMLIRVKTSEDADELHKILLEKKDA

[3] = biological target: T3, mouse Nup50A N-terminally tagged with EGFP (mouse) (UniProt Q9JIH2); assay: co-IP
T3 sequence: T2 sequence

[4] = biological target: T4, GST-fusion of mouse Nup50A (mouse) (UniProt Q9JIH2); assay: pull-down
T4 sequence: T2 sequence

[5] = biological target: T5, FLAG-tagged 29-120 fragment of human Nup50 (human) (UniProt Q9UKX7); assay: co-IP
T5 sequence: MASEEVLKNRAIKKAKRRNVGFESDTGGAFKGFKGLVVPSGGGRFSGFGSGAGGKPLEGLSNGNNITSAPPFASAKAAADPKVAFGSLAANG

binding [1]	binding [2]	binding [3]	binding [4]	binding [5]	Substance
binds	no binding	no binding	–	–	ANP32A, endogenous in HEK293T (from UniProt P39687 1-249)
–	–	–	binds	–	MEL28/ELYS (endogenous, Xenopus egg extracts) (from UniProt Q5U249 1-2408)
binds	–	–	–	binds	RCC1, endogenous in HEK293T (from UniProt P18754 1-421) (enzyme)
–	–	–	binds	–	Nup153 (endogenous, Xenopus egg extracts) (from UniProt Q640Z6 1-1605)
